Measurements reported in paper PMC12815910.
No constants are given. Whether binding was seen depends on the method and setting. Binding seen in cells or lysates may run through a third protein. Some entries that bind do so weakly or less than the wild type. Sequences can lack the tags named with a protein. Blank lines part the entries; values can stand above or below the binder they belong to.

Protein sequences, listed by entry. Tags and fused reporters are not part of them.
UniProt Q8R429: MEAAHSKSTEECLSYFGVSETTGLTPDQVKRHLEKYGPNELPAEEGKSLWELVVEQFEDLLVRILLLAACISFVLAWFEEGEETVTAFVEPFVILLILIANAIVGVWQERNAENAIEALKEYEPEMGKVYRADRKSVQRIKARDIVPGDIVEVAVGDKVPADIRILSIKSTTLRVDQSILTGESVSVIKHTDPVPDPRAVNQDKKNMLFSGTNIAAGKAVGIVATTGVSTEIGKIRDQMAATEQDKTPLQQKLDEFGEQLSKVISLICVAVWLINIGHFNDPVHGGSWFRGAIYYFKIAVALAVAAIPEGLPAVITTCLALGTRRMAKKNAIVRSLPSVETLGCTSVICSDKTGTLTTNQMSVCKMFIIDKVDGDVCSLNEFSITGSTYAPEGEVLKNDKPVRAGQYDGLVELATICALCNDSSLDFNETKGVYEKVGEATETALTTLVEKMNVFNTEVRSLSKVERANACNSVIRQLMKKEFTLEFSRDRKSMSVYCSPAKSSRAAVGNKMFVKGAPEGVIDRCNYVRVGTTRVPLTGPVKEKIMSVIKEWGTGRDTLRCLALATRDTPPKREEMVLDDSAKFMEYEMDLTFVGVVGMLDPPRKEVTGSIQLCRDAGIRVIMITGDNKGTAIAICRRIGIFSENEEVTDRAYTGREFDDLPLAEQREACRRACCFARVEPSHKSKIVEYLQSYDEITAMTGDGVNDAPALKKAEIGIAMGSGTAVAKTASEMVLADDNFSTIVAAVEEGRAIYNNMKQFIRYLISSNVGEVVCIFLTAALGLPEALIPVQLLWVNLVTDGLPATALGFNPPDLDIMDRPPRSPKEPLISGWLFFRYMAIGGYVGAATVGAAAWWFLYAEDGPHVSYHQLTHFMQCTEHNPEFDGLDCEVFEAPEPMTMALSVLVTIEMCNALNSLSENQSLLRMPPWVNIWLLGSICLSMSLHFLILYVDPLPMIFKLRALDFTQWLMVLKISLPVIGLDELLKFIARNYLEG

Target: Flag-SERCA1a (mouse) (UniProt Q8R429)
Assay: co-IP; HEK293 cells co-transfected; lysates (500 ug protein) in Co-IP buffer (20 mM NaPO4, 150 mM NaCl, 2 mM MgCl2, 0.1% NP-40, 10% glycerol, pH 7.4, 1 mM DTT) incubated with anti-DDDDK-tag mAb-magnetic agarose 60 min at 4 °C; eluted with 3× FLAG peptide; Western blot

binding: binds
B1: MCARE (no tag named) (protein, UniProt D3Z1U7 1-110)
chain: MSQYASRSDSKGALDSSSPEAYTEDDKTEEDIPAPSNYLWLTIISCFCPAYPVNIVALVFSIMSLNSYNDGDYEGARRLGRNAKWVAIASIIIGLVIIGVSCAVHFSRNP

binding: binds
B2: EGFP-MRLN (myoregulin) (peptide, UniProt Q9CV60 1-46)
chain: MSGKSWVLISTTSPQSLEDEILGRLLKILFVLFVDLMSIMYVVITS
